Results deposited as PubChem BioAssay AID1259299 (Sanger Institute, 2017).
The deposit covers 794 reagents; shown is a random part of them. 9 of all reagents (1.1%) count as active. 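Calls rest on knock-down alone; synergy scores play no part in calls, and no gene passed the synergy cut.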 A number with no mark means an inactive call. Not all columns of the deposit are shown. No sequences are given here. Not given: the amount of reagent, the time to read-out.

- Aim: 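Kinases and colorectal mutated genes needed by colorectal cancer cells, with or without drugs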 (primary screen)
- Cells: human CAR1 colorectal cancer cells
- Reagent: siRNA pool against human genes
- Conditions: anchor drug BYL719 1 µM, cetuximab 5 µg/ml or trametinib 10 nM, or DMSO vehicle alone; exposure length not given
- Measurement: 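Cell viability as fraction of non-targeting siRNA wells, mean of replicates, with robust z-score and a synergy score for each of three drugs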
- Scale: viability robust z-score, knock-down alone: higher = more viable cells
- Rule for the call: 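Essential when viability robust z-score with knock-down alone (DMSO) is below -3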
- Calls: active = essential (knock-down alone); inactive = no change

{"gene knocked down":"TNIK","viability robust z-score, knock-down alone":-0.506}
{"gene knocked down":"NTRK2","viability robust z-score, knock-down alone":0.789}
{"gene knocked down":"FXR1","viability robust z-score, knock-down alone":0.789}
{"gene knocked down":"MAPK4","viability robust z-score, knock-down alone":-2.34}
{"gene knocked down":"GUCY2D","viability robust z-score, knock-down alone":"-5.83 (active)"}
{"gene knocked down":"SRPK3","viability robust z-score, knock-down alone":0.00205}
{"gene knocked down":"EEF2K","viability robust z-score, knock-down alone":-2.16}
{"gene knocked down":"PRKG2","viability robust z-score, knock-down alone":0.789}
{"gene knocked down":"FGFR3","viability robust z-score, knock-down alone":0.789}
{"gene knocked down":"EPHA5","viability robust z-score, knock-down alone":0.324}
{"gene knocked down":"ACO1","viability robust z-score, knock-down alone":0.308}
{"gene knocked down":"BMP2K","viability robust z-score, knock-down alone":0.789}
